For experiment [1], the target named is T1, Flag-tagged WISP1 (Wnt1-inducible signaling pathway protein-1) (human) (UniProt O95388).
T1 sequence: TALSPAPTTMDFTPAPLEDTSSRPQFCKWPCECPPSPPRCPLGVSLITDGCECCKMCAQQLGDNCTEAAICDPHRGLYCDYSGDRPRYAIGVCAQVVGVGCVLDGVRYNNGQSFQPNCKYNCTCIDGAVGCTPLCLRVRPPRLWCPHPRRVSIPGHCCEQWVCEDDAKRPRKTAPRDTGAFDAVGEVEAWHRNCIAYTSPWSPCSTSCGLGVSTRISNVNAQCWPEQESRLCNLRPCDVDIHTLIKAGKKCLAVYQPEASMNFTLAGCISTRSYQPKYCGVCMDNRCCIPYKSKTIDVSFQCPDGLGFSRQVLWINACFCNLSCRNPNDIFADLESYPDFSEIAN
The experiment in a line: co-IP; MEF cells transfected with 2 µg Flag-WISP1 and 2 µg PPARγ expression vectors for 24 hours; RIPA lysates; IP with anti-Flag or anti-PPARγ overnight, protein G Sepharose, washed five times with TNMG buffer (20 mM Tris-HCl pH 8, 150 mM NaCl, 5 mM MgCl2, 0.5% NP40, 10% glycerol); IB with anti-PPARγ or anti-Flag.

Amino acid sequences for entries named in this document (tags omitted).
UniProt P37231: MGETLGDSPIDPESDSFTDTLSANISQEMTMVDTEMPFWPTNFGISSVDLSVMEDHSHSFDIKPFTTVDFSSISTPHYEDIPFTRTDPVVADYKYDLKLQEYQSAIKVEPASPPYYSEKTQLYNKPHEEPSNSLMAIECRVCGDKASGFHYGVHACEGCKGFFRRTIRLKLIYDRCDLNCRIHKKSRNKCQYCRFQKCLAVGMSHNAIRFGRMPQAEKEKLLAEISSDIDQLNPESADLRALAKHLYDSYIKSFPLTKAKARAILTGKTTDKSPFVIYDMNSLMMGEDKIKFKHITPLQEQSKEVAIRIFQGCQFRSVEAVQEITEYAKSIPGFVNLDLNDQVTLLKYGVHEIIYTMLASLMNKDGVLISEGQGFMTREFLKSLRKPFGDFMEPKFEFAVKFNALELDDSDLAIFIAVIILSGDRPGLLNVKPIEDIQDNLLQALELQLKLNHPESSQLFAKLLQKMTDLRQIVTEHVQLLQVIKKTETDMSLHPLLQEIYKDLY
UniProt P37238: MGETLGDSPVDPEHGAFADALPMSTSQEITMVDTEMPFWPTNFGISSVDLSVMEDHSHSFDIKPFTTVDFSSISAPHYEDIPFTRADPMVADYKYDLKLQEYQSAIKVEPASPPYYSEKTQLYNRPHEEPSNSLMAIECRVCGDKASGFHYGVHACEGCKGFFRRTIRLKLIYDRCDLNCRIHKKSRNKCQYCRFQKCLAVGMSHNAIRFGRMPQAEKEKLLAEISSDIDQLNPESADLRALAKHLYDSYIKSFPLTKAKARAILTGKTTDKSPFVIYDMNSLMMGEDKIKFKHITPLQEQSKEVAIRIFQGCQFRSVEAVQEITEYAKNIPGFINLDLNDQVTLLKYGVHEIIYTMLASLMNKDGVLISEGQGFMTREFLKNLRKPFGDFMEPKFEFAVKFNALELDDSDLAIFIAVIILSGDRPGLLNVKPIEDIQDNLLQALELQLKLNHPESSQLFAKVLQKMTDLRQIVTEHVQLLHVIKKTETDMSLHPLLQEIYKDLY

The target in experiment [2] is T2, endogenous WISP1 (mouse (endogenous in MEF)) (UniProt O54775).
T2 sequence: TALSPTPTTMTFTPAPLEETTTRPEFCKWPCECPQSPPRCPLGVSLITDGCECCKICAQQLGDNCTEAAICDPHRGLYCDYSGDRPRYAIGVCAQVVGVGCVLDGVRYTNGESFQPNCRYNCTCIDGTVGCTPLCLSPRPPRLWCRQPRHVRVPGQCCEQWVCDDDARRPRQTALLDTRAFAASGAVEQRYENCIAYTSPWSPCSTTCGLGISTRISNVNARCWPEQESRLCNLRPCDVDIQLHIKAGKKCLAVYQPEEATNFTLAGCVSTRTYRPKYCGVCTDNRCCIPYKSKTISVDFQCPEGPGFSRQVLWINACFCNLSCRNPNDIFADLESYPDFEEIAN
The experiment in a line: co-IP; untransfected MEF cell lysates; IP with anti-WISP1 or anti-PPARγ, IB with anti-PPARγ or anti-WISP1; IgG immunoprecipitations as controls.

Results are given in words; binding and its absence hold for the method and conditions named. Binding seen in cells or lysates may run through a third protein. Some binding calls cover weakened binding; strength is not graded here. For some assays here: Sequences can lack the tags named with a protein.

The values below come from paper PMC5431985.

For “PPARγ (peroxisome proliferator-activated receptor γ), from expression vector (from UniProt P37231 1-505)”, the binding entry in experiment [1] was “binds”.

For “endogenous PPARγ (from UniProt P37238 1-505)”, the binding entry in experiment [2] is recorded as “binds”.
